Test results as given in PubChem BioAssay AID1794845 (National Center for Advancing Translational Sciences (NCATS), 2023).
Screen size: about 6,900 compounds; fewer than 10 were called active. Calls come from the whole dose curve; as a rule, active = well fitted curve in the direction sought with a large enough effect; inconclusive = small, poorly fitted or top-dose-only effect, or another doubt; inactive = no such curve, though single readings can be large or run the other way. Some of the results follow.

By UniProt entry, the sequences of proteins in these tests, tags left out. Where a name states a change or a piece, a line headed by the entry shows the natural chain unless it says otherwise.
UniProt C7C422: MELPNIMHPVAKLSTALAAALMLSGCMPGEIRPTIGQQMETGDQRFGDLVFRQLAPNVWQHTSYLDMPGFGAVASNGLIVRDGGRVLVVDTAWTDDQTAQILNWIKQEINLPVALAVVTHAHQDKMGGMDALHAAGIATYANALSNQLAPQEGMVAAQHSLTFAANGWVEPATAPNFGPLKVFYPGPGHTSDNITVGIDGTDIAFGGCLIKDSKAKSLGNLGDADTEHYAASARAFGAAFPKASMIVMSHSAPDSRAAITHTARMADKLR

Target: Metallo-beta-lactamase type 2 (Klebsiella pneumoniae) (UniProt C7C422)
Assay: qHTS to identify inhibitors of the New Delhi Metallo-beta-lactamase (NDM): primary screen against the NCATS Gemini Collection; note: % of control where 0% means no effect
Conditions: NDM-1 enzyme, meropenem hydrolysis, absorbance 300 nm; at 38.4 µM (top of the series) unless noted
Method in brief: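 Meropenem hydrolysis (50 uM final) by 2 nM NDM-1 read as 300 nm absorbance after 30 min, following >30 min compound–enzyme preincubation in HEPES pH 7.0 with 1 uM ZnSO4 and 0.01% Tween20.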

| Structure (SMILES) | activity % (negative = inhibition) |
| --- | --- |
| Cc1c(CO)cccc1NC(=O)c1ccc(CN2CCCC(C)C2)cc1 (stereo not given) | inactive: 10.8% |
| O=C(C1CC1)N1CCC(Cc2nc(-c3ccc(F)cc3)no2)CC1 | inactive: -2.61% |
| CCc1nc2cc(N3CCC(C(=O)NCc4cccnc4)CC3)cnc2nc1CC | inactive: 0.652% |
| Cc1nc(C)c(C(=O)N2CCC3(CC2)CC(N(Cc2ccccc2)C2CC2)CCO3)s1 (stereo not given) | inactive: 18.7% |
| O=C(NCCc1ccccn1)C1CCCN(c2nc(-c3ccccc3)nc3c2CCC3)C1 (stereo not given) | inactive: 13.4% |
| CC(C)NC(=O)NC[C@H]1OC[C@@H](NC2CCCC2)[C@@H]1O | inactive: 4.2% [at 77.1 µM] |
| Oc1ccc(-c2ccc(-c3nc(CCc4ccccc4)no3)cn2)cc1 | inactive: -2.08% |
| CC(C)NC(=O)C1CCc2nnc(CNC(=O)C3CC3)n21 (stereo not given) | inactive: 47.4% [at 57.5 µM] |
| CN1C[C@@H](NC(=O)NC2CCCCC2)C[C@H]1c1nc(-c2ccccn2)no1 | inactive: 5.53% [at 57.5 µM] |
| CC(=O)N1CCCN(C(=O)c2ccc3c(c2)NC(C)(CCCCc2ccccc2)CO3)CC1 (stereo not given) | inactive: -0.209% |
| COc1ccccc1CNC(=O)c1nn(CC2CC2)c2c1CNCC2 | inactive: 0.195% |
| COc1ccccc1CC(=O)N1CC[C@@H]2NC(=O)[C@H]3C[C@H](NC(=O)C4CCC4)CN3C(=O)[C@H]21 | inactive: 0.413% |
| CCN(CC)C(=O)c1csc(-c2cccc(OC(C)C)c2)n1 | inactive: 20.2% |
| Cc1cnc(C2CC2)n1C1CCCN(C(=O)c2ccoc2)C1 (stereo not given) | inactive: 1.2% |
| CC(=O)Nc1ccc2c(c1)S(=O)(=O)N=C(CC(C)C)N2c1ccccc1 | inactive: 8.31% |
| CCn1ncc(CN2CCCCCNC(=O)[C@@H]3CCC[C@@H]32)c1C | inactive: -1.71% |
| COC(=O)Nc1cc(C2CC2)nn1C | inactive: 9.58% [at 57.5 µM] |
| O=C(Nc1cc(Cl)cc(Cl)c1)c1ccn2nccc2c1 | inactive: 21.7% [at 57.5 µM] |
| Cn1cc(-c2ccncc2)cc1C(=O)N1CCN(c2ccc(F)cc2)CC1 | inactive: 7.95% |
| CCc1cccc(NC(=O)[C@@H]2CN(S(C)(=O)=O)C[C@H]2c2ccncc2)c1 | inactive: 4.5% |
| COc1ccc(CC2(CO)CCN(c3nccc(N)n3)CC2)cc1 | inactive: -0.827% |
| Cc1cnc(C(=O)N[C@@H]2CN(C3CCOCC3)C[C@H]2CN(C)C)cn1 | inactive: -8.22% |

| Structure (SMILES) | activity % (negative = inhibition) |
| --- | --- |
| O=C(N[C@@H]1CN(Cc2ccncc2F)C[C@H]1CO)C1CC1 | inactive: -9.05% |
| COc1ccc(-c2nnc(C[C@@H]3C[C@@H](C(C)C)[C@H](CNCc4ccncc4)C=C3C)o2)cc1 | inactive: 11.2% |
| Cn1c(=O)c2ccnn2c2ccc(C(=O)NCC3CCN(Cc4ccccc4F)CC3)cc21 | inactive: 0.0386% |
| O=C(C1CCCC1)N1CCC2(CC1)CC(c1ccccc1)=NO2 | inactive: 0.65% |
| COc1cncc(Nc2ncc(-c3ccccc3OC)c3c2OCC3)c1 | inactive: 8.78% [at 57.5 µM] |
| CCC(=O)N1C[C@@H]2CCCN3CCC[C@@H]([C@H]23)[C@H]1CCCC(=O)NC | inactive: -6.06% |
| COc1ccc(S(=O)(=O)Nc2ccc(C)n(CC(=O)O)c2=O)cc1 | inactive: 38% |
| C=CCCC(CN1CCCOCC1)Oc1nccc(N(C)CC)n1 (stereo not given) | inactive: 7.94% |
| O=C1O[C@@H]2CN(c3ncccn3)C[C@@H]2N1CCc1ccc(F)cc1 | inactive: -0.225% |
| COCCNC(=O)NC[C@H]1O[C@@H]2C[C@@H](CC(=O)N3CCC(F)(F)C3)O[C@@H]2[C@@H]1O | inactive: 3.27% [at 57.5 µM] |
| COc1ccc(-c2noc(CC3CCN(C(=O)c4cc(F)ccc4F)CC3)n2)cc1 | inactive: -1.45% |
| O=C(c1cc(F)ccc1F)N1CC(c2nc(CCc3ccccc3)no2)C1 | inactive: -0.341% |
| N#Cc1cccc(C(=O)N2CCCOCCNC(=O)CC2)c1 | inactive: -0.29% |
| COc1ccc(CNc2nccc(CCC(F)(F)F)n2)cc1OC | inactive: 49.3% |
| O=c1[nH]c2cccnc2n1CCc1ccccc1 | inactive: 12.1% [at 57.5 µM] |
| COc1ccc([C@@H](NC(=O)c2cc3ncccn3n2)C2CC(O)C2)cn1 (stereo not given in full) | inactive: -0.651% |
| CN1C[C@H]2CNC[C@@]2(C(=O)NCc2ccccc2OCc2ccccc2)C1 | inactive: 0.0744% |
| CC(C)CN1C(=O)c2cccn2CC1CN (stereo not given) | inactive: 0.344% |
| CCS(=O)(=O)N1CCC(Oc2cccc(C(=O)NCc3ccccn3)c2)CC1 | inactive: 51.5% |
| c1ccc(CN2CCC[C@H]2c2nc(-c3ccc(N4CCOCC4)nc3)no2)cc1 | inactive: 16.2% [at 57.5 µM] |
| COCC1CCN(C(=O)[C@@H]2CN(c3cnccn3)C[C@H]2COC)CC1 | inactive: -0.594% |
| COc1ccccc1CN1CCC(N2CC3CCCN3C2=O)CC1 (stereo not given) | inactive: 0.519% [at 57.5 µM] |

| Structure (SMILES) | activity % (negative = inhibition) |
| --- | --- |
| Cc1noc(C)c1[S+](=O)([O-])N(C)Cc1ccc(-c2ccccc2)cc1 | inactive: 1.01% |
| O=C(NC1C[C@H]2CC[C@@H](C1)N2C(=O)c1ccn[nH]1)c1ccncc1 (stereo not given in full) | inactive: 6.55% |
| COc1cccc(-c2cc(C(=O)N3CCN(c4ncccn4)CC3)c3cnn(C)c3n2)c1 | inactive: 16.6% |
| COCCn1c2c(c(=O)n1-c1ccccc1)CCN(C(=O)c1cc3ccccc3n1C)C2 | inactive: 54.7% [at 57.5 µM] |
| FC1(F)CN[C@H](c2nnc(C3CC3)o2)C1 | inactive: 15.1% |
| CC(CCc1ccccc1)NC(=O)CCn1ccn2nc3c(c2c1=O)CCCC3 (stereo not given) | inactive: 12.2% |
| COc1ccc(-c2ccc3ncc(Nc4ccncc4)n3n2)cn1 | inactive: 8.16% [at 57.5 µM] |
| Cn1cnc(S(=O)(=O)N2CC(N(C3CCOCC3)S(C)(=O)=O)C2)c1 | inactive: 2.55% |
| CCC1CN(Cc2nc(CCOC)no2)CCC(=O)N1Cc1ccccc1 (stereo not given) | inactive: -0.144% |
| COCC(=O)N1CCN2C(=O)N(C)C[C@H]2C1 | inactive: -1% [at 77.1 µM] |
| COc1ccc(CNC(=O)C[C@@H]2O[C@H](CNC(=O)NC(C)C)[C@@H](O)[C@H]2O)cc1 | inactive: 29.8% [at 57.5 µM] |
| N#Cc1cccc(CN2CCCC2=O)c1 | inactive: -5.73% |
| CC(C)(C)CN[C@@H](Cn1cc(F)c(=O)[nH]c1=O)C(=O)O | inactive: -0.465% [at 77.1 µM] |
| O=[S+]([O-])(c1cccs1)N1CCN(c2nc3ncccc3o2)CC1 | inactive: 18.8% |
| COCC(=O)NC[C@H]1OC[C@@H](NC(C)C)[C@@H]1O | inactive: -6.42% [at 77.1 µM] |
| Cc1cnn(C(C)C(=O)N2CCC3(CCC(=O)N(C4CC4)C3)CC2)c1 (stereo not given) | inactive: -0.125% |
| C[C@@H]1CN(C[C@@H]2CN(C(=O)c3ccc(Cl)o3)C[C@@H]2CO)C[C@H](C)O1 | inactive: -7.7% |
| CN(Cc1cccn1C)C(=O)c1ccc(Cl)nc1 | inactive: 0.195% [at 57.5 µM] |
| O=S(=O)(c1ccc(F)cc1)N1CCCC(CN2CCOCC2)CC1 (stereo not given) | inactive: -1.19% |
| COC(=O)Nc1cc(-c2ccncc2)nn1C | inactive: 0.145% [at 57.5 µM] |
| O=C(NCc1ccc2c(c1)OCO2)C1CCN(c2cn[nH]c(=O)c2)C1 (stereo not given) | inactive: 16.5% |
| Cc1cnc(-c2ccccc2)n1CCNC(=O)CCC1CCCC1 | inactive: -0.514% |

Two of these compounds in a different format.
Structure (SMILES)	activity % (negative = inhibition)
COc1ccc(CNc2nccc(CCC(F)(F)F)n2)cc1OC	inactive: 49.3%
FC1(F)CN[C@H](c2nnc(C3CC3)o2)C1	inactive: 15.1%

Carrying on:

| Structure (SMILES) | activity % (negative = inhibition) |
| --- | --- |
| O=C(C[C@@H]1C[C@H]2O[C@H](CNC3Cc4ccccc4C3)[C@@H](O)[C@H]2O1)N1CCC(F)(F)C1 | inactive: 32.3% [at 57.5 µM] |
| COc1cccc(-c2noc(CN3CCC(c4nc(-c5cccn5C)no4)C3)n2)c1OC (stereo not given) | inactive: 0.66% |
| O=C(Nc1ccccc1F)N1CC(Oc2cccc(-c3nc(-c4ccccc4)no3)c2)C1 | inactive: 4.92% |
| CC(C)N(Cc1nccn1C)C(=O)CC(c1ccccc1)c1ccccc1F (stereo not given) | inactive: 23% |
| COc1cc(OC)cc(C(=O)NCC2CCCN(C(=O)CCNC(C)=O)C2)c1 (stereo not given) | inactive: 1.73% |
| O=C(c1ccccc1)N1CC2(CCNC2)OCc2ccccc21 (stereo not given) | inactive: 0.739% |
| CC(=O)NC[C@H]1OC[C@@H](NCC(C)(C)C)[C@@H]1O | inactive: -0.105% [at 77.1 µM] |
| O=S(=O)(NCC1(COc2cnccn2)C[C@@H](O)[C@@H](O)C1)c1ccc(F)cc1 (stereo not given in full) | inactive: -5.86% [at 57.5 µM] |
| Cc1nc2cnccn2c1C(=O)N1CCC(C#N)CC1 | inactive: 7.45% [at 57.5 µM] |
| C[C@@H]1CN(C(=O)NCC2CCCCC2)CC[C@@]1(O)C1CCOCC1 | inactive: -2.53% |
| Cc1ccc2nc(C(NC(=O)C3CCN(CC(N)=O)CC3)C(C)C)[nH]c2c1 (stereo not given) | inactive: -0.481% |
| Cc1nccn1CCC(NC(=O)c1cn(CCN)nn1)c1ccccc1 (stereo not given) | inactive: -1.6% |
| COc1ccc(C(=O)N2CCN(c3nnc4ccccn34)CC2)cc1OC | inactive: 0.836% |
| CCOC(=O)C(Cc1cccc(N2CCN(C(=O)OC(C)(C)C)CC2)c1)OC (stereo not given) | inactive: 0.858% |
| CC(=O)c1ccc(NC(=O)N[C@H]2CCN3C(=O)[C@@H](Cc4ccccc4)NC(=O)[C@H]23)cc1 | inactive: 13.7% [at 57.5 µM] |
| CC(C)Cc1nnc(NC(=O)C[C@H]2NC(=O)c3ccccc3NC2=O)s1 | inactive: -1.18% |
| CC(=O)Nc1cccc(-c2ccnc(-c3nnc(C)n3Cc3ccccc3)c2)c1 | inactive: 3.84% [at 57.5 µM] |
| O=C1C(N2CCN(Cc3ccc[nH]3)CC2)CCN1CCc1ccccc1 (stereo not given) | inactive: -8.25% |
| CC(C)CNC(=O)c1nc(-c2ccc(Cl)cc2)c2cnccn12 | inactive: 4.98% [at 57.5 µM] |

In another format: entries from further up
Structure (SMILES),activity % (negative = inhibition)
O=C(Nc1ccccc1F)N1CC(Oc2cccc(-c3nc(-c4ccccc4)no3)c2)C1,inactive: 4.92%
O=S(=O)(NCC1(COc2cnccn2)C[C@@H](O)[C@@H](O)C1)c1ccc(F)cc1 (stereo not given in full),inactive: -5.86% [at 57.5 µM]
O=C1C(N2CCN(Cc3ccc[nH]3)CC2)CCN1CCc1ccccc1 (stereo not given),inactive: -8.25%
